Drawing on PubChem BioAssay AID1508600 (Functional Genomics Laboratory (NCATS/FGL), 2020), this text covers z-score for 69 sequences.

Out of some 53,000 sequences screened, about 3,700 (7%) were called active.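 Rule for the calls: active = gene knockdowns whose robust z-score for IL-1 alpha signal is at least 2 or at most -2, so actives lie on both sides; inactive = the rest.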 Some of the results follow.

A short description of this experiment: Components of the Cytosolic LPS Sensing Pathway: Gene Identification via Genome-wide siRNA Screen.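 Note: robust z of the log signal after scaling to non-targeting control siRNA wells of the plate.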 Particulars: RAW264.7 macrophages, IL-1a HTRF, actives lie on both sides, screened at 100 nM (by protocol), cells primed 5 h with Pam3CSK4 first. In a few lines: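 Using IL-1a HTRF as read-out, the screen measured release from RAW264.7 cells after 48h siRNA knockdown (100 nM), 5 h Pam3CSK4 priming and 24 h cytosolic LipidA. Values were expressed relative to negative-control wells as robust z-scores.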
As for GGUGGACAAGGCAAUACAGTT against Mmp20, the z-score was active: 4.46. Regarding GGAAGUAGAAGUGAGUGAATT against Zcrb1, the z-score is inactive: -0.6. Take GGAGAAUCCUCAUUGACACTT against Lactb2: the z-score is inactive: -1.71.

Take GGAGACCUUCAAAAAGGUGTT against Tmprss4: the z-score was inactive: -1.06.

As to GGAUCAUUUCUGGCAAGAGTT against Irf7, the z-score is inactive: -0.379.

As to GGCGAAAAAUACAAAUUCCTT against Vamp1, the z-score was inactive: 0.927.

With GCGUGCGGAUAACAAAAGCTT against D11Wsu47e, the z-score was inactive: 0.342. For the sequence GGGUGAGAUAAUUGAAAAGTT against Slc12a6, the z-score is inactive: 0.607.

As to CCGCGUCUUGCUAUGGAAGTT against Baiap2l2, the z-score is inactive: 0.79.

As for GGAUUGAGCUACAAGAAUATT against Cgas, the z-score is inactive: -0.103. The same measure for GGGAGGAAUUUGAUAAGAUTT against Nudt21: inactive: -0.924. CGAUUUGCCCAAUAAAGAATT against Scn9a: the z-score is inactive: 0.223. For the sequence GCGGUUUCGAACAAUCACGTT against Rab8a, the z-score was active: -2.4. Turning to GGAUUUUCAAUUCAUACCCTT against Psmb1, the z-score was inactive: -0.189.

Regarding CCUAACUCACAACAAUUACTT against Olfr304, the z-score was inactive: -0.496. Turning to GGAGUUGCCAUGCUCAACATT against Olfr808, the z-score was inactive: 0.193. As for GUUACCUCAGUGUUAUACUTT against Olfr45, the z-score is inactive: 1.7. As for GGACUUCAAGGACUUCUACTT against Crtap, the z-score was inactive: 0.112. Consider GCUAUUAGAGAGGACUAAGTT against Ccdc9b, for which the z-score is inactive: 0.201. Turning to GGAAAUGACUCAUUUACAGTT against Smc1a, the z-score was inactive: -1.81. For GGGACUUAUGUACAACUUCTT against Idua, the z-score is inactive: 1.53. Turning to GGCUGCUCAUAUUGGUCAATT against Sphk2, the z-score is inactive: 0.826. With GGCUCUGCUGGAUAUCAUGTT against Med24, the z-score is inactive: -1.08.

With GGUACAGUGCAUCGACAUGTT against Eng, the z-score is inactive: 0.879. Consider GGAGAUGAUUAAGUCUGGATT against Pkm, for which the z-score was inactive: -0.308. For GGAUUACCCAUUUGUUCCUTT against Adam4 the value was inactive: 1.38. For GGAUGUGGUUUUCACUGACTT against Cat, the z-score was inactive: -0.325. The same measure for GGAGUGUUUUGCAGUUUUATT against Dcstamp: active: 4.39; for GGUUAGGUUGAUGAAUAAGTT against Eif4ebp2: active: 2.46; for GGAAAAAAAACACUGACUGTT against Hoxa5: inactive: 1.05.

Take GGACACUGUCCAGAAGUUGTT against Rmnd5a: the z-score is inactive: -0.212.

Turning to GGAAGAAUGUAGGAGGAAGTT against Sln, the z-score is inactive: 0.246. Consider CCUAUUACCAGUCUUAUGATT against Zfp458, for which the z-score is inactive: -0.279. For GGAAUCUUUAUGUCGGCACTT against Tgfbrap1 the value was inactive: -0.802; for CCACAGAUUACAUUUAUCCTT against Sephs1, inactive: -1.19; for GCGCAACUGAAAUAAAUGATT against Hoxc9, inactive: 0.763. With GGAGAGGUAGACUUCCUGUTT against Fam83a, the z-score was inactive: 0.552. With GCUACCAUCGGUUUUCCGATT against Cdc6, the z-score is inactive: 1.13.

In the case of GGAAUUCUAGACAAUCAAGTT against Ctso, the z-score was inactive: 0.993. For GGCCAAGAAAAACUACUAUTT against Kcnk5 the value was inactive: -0.706; for GCUAUUUUCGUCACUUUCUTT against Tssk1, inactive: 0.494; for GGAAAGAUCAUGGACAAGUTT against Dtna, active: 2.06.

With CCGUUACAGUUAAAUUUACTT against Per3, the z-score was inactive: 0.856.

As for CCUUGUGUAUGAAAUACUUTT against Taf1b, the z-score is inactive: -0.282. With GGUUGGAUUAUGCAUAUUUTT against Serp1, the z-score was inactive: 0.186. Consider GGCUAGGUAGACCAUAGAGTT against Nat8l, for which the z-score was inactive: 0.375. As for GGUGGUUCGAUAUGAGGCATT against Prom2, the z-score is inactive: -1.64. For CCCAAUGACAAUAAAGACCTT against Mmp25 the value was inactive: -0.936; for GGGAGUGGGAUUUUGCCUUTT against Sfn, inactive: 0.0269; for GUUACUUUGAUGUUGUCUATT against Pdgfrl, inactive: 0.817. Turning to CCUUCAACUAUGGCAAAUATT against Cacul1, the z-score is inactive: -0.241. As to GGUAUUAAAGACUACUCCATT against Glrx5, the z-score is inactive: 0.821. For GGAGUAUCUUAGGAGUGAATT against Ybey, the z-score is inactive: -0.394. On to UUGUUCAAGAGCUAGAGAUTT against Atg2a, for which the z-score is inactive: 0.811. GGCUCUUGGGAGAUUUAAATT against Sp5: the z-score was inactive: 1.85. Take GGACCGGUUUAUUUGGCGGTT against Mmp2: the z-score was active: 3.43.

In the case of CCAAUCCAACAGCAUAUUUTT against Vkorc1, the z-score is inactive: -0.742. Turning to GGCAGCUUGUAAAAAUCCATT against Amer1, the z-score is inactive: -1.28.

Turning to GCAAUAAUAGAAUGAGAAGTT against Ott, the z-score is inactive: 0.00108. As to GGCAAAAAGGGCAUUGUCCTT against Naip1, the z-score was inactive: -0.946. Regarding GGAUCUGAAUGACUUUGUGTT against Sowahb, the z-score was inactive: 0.378. As to GGGAGUUUUCAGACAUUCUTT against Lingo4, the z-score was inactive: 1.12. Consider GGGCAAAAAAGGUCUAUUCTT against Rfpl4, for which the z-score is inactive: 0.44.

Take GGUCAAAAAUCAAGUUUACTT against Ovol2: the z-score is inactive: 0.162. For GGCUUAUUUUUCUUCAGUUTT against Ext1 the value was inactive: -0.585. In the case of GGAAAUUACUUUGAUACUCTT against Rfx3, the z-score is inactive: 1.5. GAGGAUUCUGUAGGUCUUCTT against Defb19: the z-score is inactive: 0.28.

For GGCUUUCUAUACGUGUGCUTT against Olfr1161, the z-score is inactive: -1.41. The same measure for GGUGCCAAUGACAUAUUGGTT against H2-M10.5: inactive: 0.909.
